Results as given in patent US7799753B2 (Board of Governers for Higher Education, priority 2004, dated 2010).

Assay: general procedure: Fmoc solid-phase peptide synthesis; Fmoc-Ile-Wang resin; HBTU/NMM
Settings: conjugation step

Question: Which conjugation yield does the source give for “PEPTIDE1{[ATP].[6-Ahex].[pTyr].E.E.I}$$$$V2.0” here?
Answer: The conjugation yield was 21.9%.

Question: For ATP-11-Aund-pTyr-Glu-Glu-Ile-OH, which conjugation yield is on record?
Answer: The conjugation yield was 21.2%.

Question: With “PEPTIDE1{[8N3ATP].[Trioxa-Suc].[pTyr].[Glu(pN3anilide)].E.I}$$$$V2.0” as the substance, how does the conjugation yield read?
Answer: The conjugation yield was 32.0%.

Question: For “PEPTIDE1{[ATP].[Trioxa-Suc].[pTyr].E.E.I}$$$$V2.0”, which conjugation yield is on record?
Answer: Its conjugation yield is 14.9%.

Question: Which conjugation yield does the source give for “PEPTIDE1{[ATP].[bAla].[pTyr].E.E.I}$$$$V2.0” here?
Answer: Its conjugation yield is 35.7%.

Question: With ATP-8-Aoct-pTyr-Glu-Glu-Ile-OH as the substance, how does the conjugation yield read?
Answer: The conjugation yield was 17.3%.

Question: With “ATP-1,8-Diam-Suc-1,8-Diam-Suc-pTyr-Glu-Glu-Ile-OH” as the substance, how does the conjugation yield read?
Answer: Its conjugation yield is 16.9%.

Same assay, conditions: whole synthesis, scale 0.1 mmol

Question: Which isolated yield does the source give for H2N-1,13-Trioxa-Suc-pTyr-Glu-Glu-Ile-OH here?
Answer: The isolated yield was 20%.

Question: For “H2N-1,8-Diam-Suc-1,8-Diam-Suc-pTyr-Glu-Glu-Ile-OH”, which isolated yield is on record?
Answer: Its isolated yield is 18%.

Strings that start with PEPTIDE1 are HELM notation: dots part the residues, brackets hold end groups and non-standard residues.
